Test results: the supplement of paper PMC10849652
This is one part of the list.

The chains behind the UniProt entries cited, without tags or fusion partners. Where a name states a change or a piece, a line headed by the entry shows the natural chain unless it says otherwise.
UniProt O14530: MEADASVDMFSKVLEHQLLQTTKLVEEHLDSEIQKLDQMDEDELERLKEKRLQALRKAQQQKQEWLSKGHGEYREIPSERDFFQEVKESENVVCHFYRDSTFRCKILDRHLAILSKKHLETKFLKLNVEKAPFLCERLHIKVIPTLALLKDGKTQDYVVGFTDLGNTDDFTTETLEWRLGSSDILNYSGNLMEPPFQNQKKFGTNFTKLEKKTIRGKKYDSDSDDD
UniProt Q9BRA2: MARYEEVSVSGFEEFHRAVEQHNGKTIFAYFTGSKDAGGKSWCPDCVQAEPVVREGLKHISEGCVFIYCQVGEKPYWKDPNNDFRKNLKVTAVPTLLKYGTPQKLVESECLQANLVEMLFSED
UniProt O15042: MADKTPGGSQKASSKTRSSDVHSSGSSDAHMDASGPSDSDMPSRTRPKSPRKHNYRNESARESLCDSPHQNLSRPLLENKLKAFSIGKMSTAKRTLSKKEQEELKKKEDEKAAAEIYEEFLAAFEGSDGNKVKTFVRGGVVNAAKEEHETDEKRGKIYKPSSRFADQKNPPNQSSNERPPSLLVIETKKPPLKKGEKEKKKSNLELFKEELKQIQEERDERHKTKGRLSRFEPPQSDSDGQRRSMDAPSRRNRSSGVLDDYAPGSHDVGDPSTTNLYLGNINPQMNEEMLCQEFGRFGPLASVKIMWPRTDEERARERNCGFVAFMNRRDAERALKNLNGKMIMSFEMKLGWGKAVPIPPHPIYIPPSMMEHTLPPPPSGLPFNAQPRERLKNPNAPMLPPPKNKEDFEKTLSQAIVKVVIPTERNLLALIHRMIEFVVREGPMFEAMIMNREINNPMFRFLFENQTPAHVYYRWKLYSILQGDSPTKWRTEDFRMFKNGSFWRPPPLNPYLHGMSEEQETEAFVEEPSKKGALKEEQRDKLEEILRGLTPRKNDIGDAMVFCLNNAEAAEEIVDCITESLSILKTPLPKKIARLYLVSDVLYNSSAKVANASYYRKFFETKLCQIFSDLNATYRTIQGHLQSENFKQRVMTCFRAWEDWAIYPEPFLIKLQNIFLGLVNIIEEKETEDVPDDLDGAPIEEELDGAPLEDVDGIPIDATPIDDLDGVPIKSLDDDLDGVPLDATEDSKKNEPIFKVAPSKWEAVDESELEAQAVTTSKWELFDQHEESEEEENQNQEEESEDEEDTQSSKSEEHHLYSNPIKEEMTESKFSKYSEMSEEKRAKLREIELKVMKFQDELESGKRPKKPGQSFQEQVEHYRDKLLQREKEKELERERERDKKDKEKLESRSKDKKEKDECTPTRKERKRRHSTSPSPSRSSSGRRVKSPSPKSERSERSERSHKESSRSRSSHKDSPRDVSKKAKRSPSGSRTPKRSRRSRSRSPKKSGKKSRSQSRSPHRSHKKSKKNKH
UniProt Q9BZX2: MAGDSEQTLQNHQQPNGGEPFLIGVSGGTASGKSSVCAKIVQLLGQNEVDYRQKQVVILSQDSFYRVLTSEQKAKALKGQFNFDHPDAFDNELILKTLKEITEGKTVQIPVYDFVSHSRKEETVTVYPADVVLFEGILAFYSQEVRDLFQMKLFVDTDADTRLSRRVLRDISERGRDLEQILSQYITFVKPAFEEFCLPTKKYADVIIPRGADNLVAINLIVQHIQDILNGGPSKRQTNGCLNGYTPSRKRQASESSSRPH
UniProt P68036, whole entry, looked up: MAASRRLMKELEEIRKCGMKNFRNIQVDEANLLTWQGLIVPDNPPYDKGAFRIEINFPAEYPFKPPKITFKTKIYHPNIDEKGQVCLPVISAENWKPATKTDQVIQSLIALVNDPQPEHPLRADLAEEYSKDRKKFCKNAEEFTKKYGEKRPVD
UniProt Q5T6F2: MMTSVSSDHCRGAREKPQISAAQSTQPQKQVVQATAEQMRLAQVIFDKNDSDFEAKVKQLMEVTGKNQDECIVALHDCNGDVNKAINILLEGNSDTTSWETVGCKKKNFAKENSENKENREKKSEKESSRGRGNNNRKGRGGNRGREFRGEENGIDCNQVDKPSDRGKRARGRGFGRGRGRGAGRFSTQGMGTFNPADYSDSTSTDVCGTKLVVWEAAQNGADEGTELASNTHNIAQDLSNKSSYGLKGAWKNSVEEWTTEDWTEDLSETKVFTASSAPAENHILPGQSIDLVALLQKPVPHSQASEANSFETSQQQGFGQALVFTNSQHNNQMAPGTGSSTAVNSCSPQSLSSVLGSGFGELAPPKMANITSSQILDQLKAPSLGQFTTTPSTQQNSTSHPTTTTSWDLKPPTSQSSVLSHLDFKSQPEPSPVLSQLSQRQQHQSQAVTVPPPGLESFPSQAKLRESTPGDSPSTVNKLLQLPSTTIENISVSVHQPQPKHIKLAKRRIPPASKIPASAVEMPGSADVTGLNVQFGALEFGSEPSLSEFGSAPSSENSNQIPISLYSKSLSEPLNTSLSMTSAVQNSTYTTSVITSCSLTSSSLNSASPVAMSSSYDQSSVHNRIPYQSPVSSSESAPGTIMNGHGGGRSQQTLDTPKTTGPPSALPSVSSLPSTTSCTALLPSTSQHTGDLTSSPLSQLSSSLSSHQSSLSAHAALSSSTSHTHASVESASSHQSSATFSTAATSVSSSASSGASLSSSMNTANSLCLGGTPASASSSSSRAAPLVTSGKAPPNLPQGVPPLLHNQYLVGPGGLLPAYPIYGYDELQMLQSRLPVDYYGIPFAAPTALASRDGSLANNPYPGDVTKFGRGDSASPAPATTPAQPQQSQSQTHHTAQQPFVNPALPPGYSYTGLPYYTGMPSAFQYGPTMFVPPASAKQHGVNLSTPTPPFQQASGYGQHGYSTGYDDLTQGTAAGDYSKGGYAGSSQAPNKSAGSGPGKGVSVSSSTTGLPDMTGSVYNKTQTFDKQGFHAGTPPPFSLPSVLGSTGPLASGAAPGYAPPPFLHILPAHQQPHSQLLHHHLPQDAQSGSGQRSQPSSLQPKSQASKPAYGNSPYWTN
UniProt P61077: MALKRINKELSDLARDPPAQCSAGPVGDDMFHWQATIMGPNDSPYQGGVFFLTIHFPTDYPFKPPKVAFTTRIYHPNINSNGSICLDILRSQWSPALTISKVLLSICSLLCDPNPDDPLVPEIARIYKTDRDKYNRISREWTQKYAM
UniProt O95071: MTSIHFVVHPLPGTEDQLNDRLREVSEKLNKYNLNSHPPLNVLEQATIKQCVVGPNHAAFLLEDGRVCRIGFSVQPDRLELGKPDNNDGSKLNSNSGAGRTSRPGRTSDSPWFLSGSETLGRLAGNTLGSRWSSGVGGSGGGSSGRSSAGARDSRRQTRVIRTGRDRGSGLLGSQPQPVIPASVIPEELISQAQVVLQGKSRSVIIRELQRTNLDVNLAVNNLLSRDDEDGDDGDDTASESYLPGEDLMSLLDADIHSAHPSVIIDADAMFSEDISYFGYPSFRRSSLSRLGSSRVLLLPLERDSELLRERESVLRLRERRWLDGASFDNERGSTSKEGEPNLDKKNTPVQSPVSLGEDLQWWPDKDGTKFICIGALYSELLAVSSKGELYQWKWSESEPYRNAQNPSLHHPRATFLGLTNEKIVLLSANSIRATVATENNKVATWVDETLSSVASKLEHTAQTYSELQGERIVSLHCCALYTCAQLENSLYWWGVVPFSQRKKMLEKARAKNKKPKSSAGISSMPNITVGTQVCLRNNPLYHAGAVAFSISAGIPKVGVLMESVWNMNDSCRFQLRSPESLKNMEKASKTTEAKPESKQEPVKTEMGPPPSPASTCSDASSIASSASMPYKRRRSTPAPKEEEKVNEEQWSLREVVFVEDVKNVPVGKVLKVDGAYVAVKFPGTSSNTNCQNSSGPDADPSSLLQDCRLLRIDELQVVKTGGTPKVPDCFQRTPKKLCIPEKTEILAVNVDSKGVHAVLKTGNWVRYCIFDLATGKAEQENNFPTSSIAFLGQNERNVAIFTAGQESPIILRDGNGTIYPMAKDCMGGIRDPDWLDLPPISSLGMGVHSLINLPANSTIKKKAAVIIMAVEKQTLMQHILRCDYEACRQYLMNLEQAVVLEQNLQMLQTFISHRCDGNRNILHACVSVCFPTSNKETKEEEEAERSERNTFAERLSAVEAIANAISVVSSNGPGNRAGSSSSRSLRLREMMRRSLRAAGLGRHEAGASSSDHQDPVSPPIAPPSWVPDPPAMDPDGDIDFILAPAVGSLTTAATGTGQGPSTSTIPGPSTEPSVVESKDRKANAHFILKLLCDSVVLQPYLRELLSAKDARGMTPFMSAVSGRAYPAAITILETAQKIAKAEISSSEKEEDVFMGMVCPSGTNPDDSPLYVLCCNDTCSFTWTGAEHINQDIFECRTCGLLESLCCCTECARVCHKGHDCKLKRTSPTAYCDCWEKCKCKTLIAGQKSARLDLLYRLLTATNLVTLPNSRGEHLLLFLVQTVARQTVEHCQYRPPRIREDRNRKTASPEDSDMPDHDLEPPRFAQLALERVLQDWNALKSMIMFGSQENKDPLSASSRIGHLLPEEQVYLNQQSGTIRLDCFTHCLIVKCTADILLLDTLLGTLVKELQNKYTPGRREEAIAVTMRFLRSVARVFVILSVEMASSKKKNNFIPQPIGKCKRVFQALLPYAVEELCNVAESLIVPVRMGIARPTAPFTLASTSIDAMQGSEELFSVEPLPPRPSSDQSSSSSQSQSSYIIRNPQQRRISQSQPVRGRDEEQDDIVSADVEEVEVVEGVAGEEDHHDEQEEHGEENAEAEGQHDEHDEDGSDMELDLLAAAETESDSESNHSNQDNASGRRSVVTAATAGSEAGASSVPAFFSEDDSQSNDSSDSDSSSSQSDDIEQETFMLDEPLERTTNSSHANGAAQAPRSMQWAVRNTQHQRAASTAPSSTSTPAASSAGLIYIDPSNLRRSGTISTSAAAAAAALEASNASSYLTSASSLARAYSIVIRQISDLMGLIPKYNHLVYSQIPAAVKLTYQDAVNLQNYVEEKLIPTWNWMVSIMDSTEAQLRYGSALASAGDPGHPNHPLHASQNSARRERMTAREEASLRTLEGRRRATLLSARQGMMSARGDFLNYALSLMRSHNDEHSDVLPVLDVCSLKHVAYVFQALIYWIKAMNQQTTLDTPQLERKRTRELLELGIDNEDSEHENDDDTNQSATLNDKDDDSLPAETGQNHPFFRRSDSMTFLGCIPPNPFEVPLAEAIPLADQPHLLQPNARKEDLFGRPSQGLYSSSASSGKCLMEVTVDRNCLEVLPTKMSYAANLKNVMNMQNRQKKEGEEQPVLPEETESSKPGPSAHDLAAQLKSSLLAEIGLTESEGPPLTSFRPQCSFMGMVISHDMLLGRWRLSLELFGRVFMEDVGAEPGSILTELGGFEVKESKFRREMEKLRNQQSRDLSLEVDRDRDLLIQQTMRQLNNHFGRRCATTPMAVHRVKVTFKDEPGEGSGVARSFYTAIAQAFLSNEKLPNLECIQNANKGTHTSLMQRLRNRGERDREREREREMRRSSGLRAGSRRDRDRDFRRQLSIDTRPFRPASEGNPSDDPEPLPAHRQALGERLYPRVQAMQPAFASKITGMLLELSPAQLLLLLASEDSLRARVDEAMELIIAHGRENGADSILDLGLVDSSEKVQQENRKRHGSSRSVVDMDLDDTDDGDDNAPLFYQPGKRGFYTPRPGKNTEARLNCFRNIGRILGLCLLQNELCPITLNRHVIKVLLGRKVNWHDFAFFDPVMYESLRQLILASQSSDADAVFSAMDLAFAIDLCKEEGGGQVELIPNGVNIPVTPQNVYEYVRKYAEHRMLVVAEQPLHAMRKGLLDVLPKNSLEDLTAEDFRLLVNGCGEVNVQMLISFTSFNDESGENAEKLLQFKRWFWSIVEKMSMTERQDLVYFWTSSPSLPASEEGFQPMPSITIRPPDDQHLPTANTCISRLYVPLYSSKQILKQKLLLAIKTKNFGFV
UniProt Q01081: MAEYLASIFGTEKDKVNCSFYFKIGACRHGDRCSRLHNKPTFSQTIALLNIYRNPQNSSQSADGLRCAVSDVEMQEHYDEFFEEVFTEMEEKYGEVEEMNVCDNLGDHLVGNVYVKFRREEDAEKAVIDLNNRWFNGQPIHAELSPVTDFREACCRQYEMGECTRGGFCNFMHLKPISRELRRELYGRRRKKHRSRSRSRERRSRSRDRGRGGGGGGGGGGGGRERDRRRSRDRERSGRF
UniProt Q969M7: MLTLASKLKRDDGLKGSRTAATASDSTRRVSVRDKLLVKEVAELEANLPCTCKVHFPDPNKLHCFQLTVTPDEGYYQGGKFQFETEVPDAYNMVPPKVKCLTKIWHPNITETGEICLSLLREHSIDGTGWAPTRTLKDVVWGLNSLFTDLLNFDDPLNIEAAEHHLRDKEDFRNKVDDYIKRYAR
UniProt P04818: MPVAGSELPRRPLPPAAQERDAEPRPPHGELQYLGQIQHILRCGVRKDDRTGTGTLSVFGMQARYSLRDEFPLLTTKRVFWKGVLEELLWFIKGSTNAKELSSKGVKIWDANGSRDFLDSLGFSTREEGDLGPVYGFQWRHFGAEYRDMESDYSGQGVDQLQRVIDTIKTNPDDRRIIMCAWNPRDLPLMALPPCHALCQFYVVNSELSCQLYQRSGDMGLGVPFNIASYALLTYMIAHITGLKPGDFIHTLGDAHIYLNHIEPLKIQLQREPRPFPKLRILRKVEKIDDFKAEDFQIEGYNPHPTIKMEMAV

Tests used:
Assay in all cases: log2 fold change, soluble protein after heating vs DMSO (PISA); higher = thermal stabilisation; K562 lysate, 10 uM; active = over 0.2 and 3.5 SD of the protein, either way, in both replicates (recomputed)
erlotinib = compound: C#Cc1cccc(Nc2ncnc3cc(OCCOC)c(OCCOC)cc23)c1 [erlotinib]
Summary of the method: (§1)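 K562 pellets were dounce-homogenised in PBS pH 7.4 containing 1 mM MgCl2, and the crude extract, at 1 mg/mL protein, was exposed to 10 μM compound for 30 min. Aliquots were heated for 3 min across 48°C-58°C, pooled, brought to 0.5% NP-40 at 4°C and spun at 21,000xg for 90 min, with the supernatant taken as soluble protein. TMTpro 16plex LC-MS/MS with equalised channel sums quantified that protein. Values are log-two fold changes in thermal stability relative to solvent controls, taken from duplicates.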

[1] = compound: C/C(=N\NC(=O)C1=CC(=CC=C1)S(=O)(=O)N2CCOCC2)/C3=C(C=CC(=C3)Cl)O
Summary of the method: as §1

[2] = compound: C1=CC(=CC=C1C2=NC3=C(N2)C=C(C=C3)C(=O)N)OC4=CC=C(C=C4)Cl
Summary of the method: as §1

[3] = compound: C1=CC2=C(C=CC(=C2)/C=C\3/C(=O)NC(=NCC4=CC=CS4)S3)N=C1
Summary of the method: as §1

[4] = compound: C1=CC2=NC=CN=C2C=C1/C=C/3\C(=O)NC(=O)S3
Summary of the method: as §1

[5] = compound: C1=CC=C(C=C1)C2=NC(=C(N2)C3=CC=NC=C3)C4=CC(=C(C=C4)Cl)O
Summary of the method: as §1

[6] = compound: C1=CC=C2C(=C1)C3=NNC4=CC=CC(=C43)C2=O
Summary of the method: as §1

[7] = compound: C1CCN(C1)C(=O)NC2=CC=CC(=C2)NC3=NC=C(C(=N3)NCCC4=CN=CN4)Br
Summary of the method: as §1

[8] = compound: C1CN(CCC1(CC2=CC=C(C=C2)Cl)N)C3=NC=NC4=C3C=CN4
Summary of the method: as §1

IRAK-1-4 Inhibitor I = compound: C1COCCN1CCN2C3=CC=CC=C3N=C2NC(=O)C4=CC(=CC=C4)[N+](=O)[O-] [IRAK-1-4 Inhibitor I]
Summary of the method: as §1

Measured: log2 fold change

UBR2 isoform 4 (UniProt Q8IWV8)
inactive: erlotinib 0.024 | [1] 0.034 | [2] 0.021 | [3] 0.029 | [4] -0.002 | [5] -0.031 | [6] 0.012 | [7] -0.031 | [8] -0.004 | IRAK-1-4 Inhibitor I 0.002

UBA6
inactive: erlotinib 0.007 | [1] 0 | [2] -0.004 | [3] 0.01 | [4] -0.004 | [5] 0 | [6] -0.045 | [7] 0.001 | [8] -0.005 | IRAK-1-4 Inhibitor I -0.022

TXNDC9 (UniProt O14530)
inactive: erlotinib -0.007 | [1] 0.052 | [2] 0.007 | [3] -0.01 | [4] -0.006 | [5] -0.008 | [6] 0.012 | [7] 0 | [8] 0.017 | IRAK-1-4 Inhibitor I -0.041

TXNDC17 (UniProt Q9BRA2)
inactive: erlotinib 0.031 | [1] -0.072 | [2] 0.016 | [3] -0.005 | [4] -0.042 | [5] 0.047 | [6] 0.068 | [7] 0.035 | [8] 0.018 | IRAK-1-4 Inhibitor I 0.006

U2SURP (UniProt O15042)
inactive: erlotinib -0.004 | [1] -0.018 | [2] 0.03 | [3] -0.013 | [4] -0.031 | [5] 0.006 | [6] -0.014 | [7] -0.023 | [8] 0.041 | IRAK-1-4 Inhibitor I -0.013

TWSG1 (UniProt Q9GZX9)
inactive: erlotinib 0.026 | [1] 0.047 | [2] -0.016 | [3] -0.008 | [4] -0.055 | [5] -0.031 | [6] 0.084 | [7] 0.011 | [8] 0.012 | IRAK-1-4 Inhibitor I 0.025

UBE2S (UniProt Q16763)
inactive: erlotinib 0.034 | [1] 0.026 | [2] 0.018 | [3] -0.01 | [4] 0.016 | [5] 0.003 | [6] 0.004 | [7] 0.002 | [8] 0 | IRAK-1-4 Inhibitor I 0.012

UCHL5 (UniProt Q5LJA9)
inactive: erlotinib -0.052 | [1] 0.084 | [2] 0.005 | [3] -0.024 | [4] -0.032 | [5] 0.016 | [6] -0.045 | [7] 0.035 | [8] 0.006 | IRAK-1-4 Inhibitor I 0.054

UCK2 (UniProt Q9BZX2)
inactive: erlotinib 0.011 | [1] 0.002 | [2] 0.025 | [3] -0.022 | [4] -0.07 | [5] -0.001 | [6] 0.072 | [7] -0.02 | [8] -0.015 | IRAK-1-4 Inhibitor I 0.007

UBE2L3 isoform 3 (UniProt P68036)
inactive: erlotinib -0.004 | [1] 0.003 | [2] 0.023 | [3] -0.047 | [4] 0.017 | [5] -0.002 | [6] 0 | [7] 0.036 | [8] 0.012 | IRAK-1-4 Inhibitor I 0.007

UBR7 (UniProt Q8N806)
inactive: erlotinib -0.011 | [1] -0.046 | [2] 0.036 | [3] 0.025 | [4] -0.017 | [5] 0.007 | [6] -0.006 | [7] 0.029 | [8] 0.007 | IRAK-1-4 Inhibitor I -0.012

TUBE1 (UniProt Q9UJT0)
inactive: erlotinib 0.051 | [1] -0.267 | [2] 0.095 | [3] -0.059 | [4] -0.063 | [5] -0.078 | [6] -0.033 | [7] -0.113 | [8] 0.047 | IRAK-1-4 Inhibitor I 0.023

UBAP2 (UniProt Q5T6F2)
inactive: erlotinib -0.02 | [1] -0.02 | [2] 0.032 | [3] 0.01 | [4] 0.022 | [5] -0.159 | [6] 0.016 | [7] -0.009 | [8] 0.001 | IRAK-1-4 Inhibitor I 0.016

UBE2D3 isoform 3 (UniProt P61077)
inactive: erlotinib 0.012 | [1] -0.002 | [2] 0.016 | [3] -0.031 | [4] -0.025 | [5] 0.03 | [6] -0.003 | [7] -0.035 | [8] 0.06 | IRAK-1-4 Inhibitor I 0.021

UBR5 (UniProt O95071)
inactive: erlotinib 0.005 | [1] -0.029 | [2] -0.024 | [3] -0.002 | [4] -0.012 | [5] -0.013 | [6] -0.033 | [7] -0.001 | [8] 0.007 | IRAK-1-4 Inhibitor I 0.001

UAP1L1 (UniProt Q3KQV9)
inactive: erlotinib -0.044 | [1] 0.167 | [2] -0.046 | [3] 0.09 | [4] -0.015 | [5] 0.123 | [6] -0.031 | [7] -0.1 | [8] -0.045 | IRAK-1-4 Inhibitor I -0.087

U2AF1 isoform 2 (UniProt Q01081)
inactive: erlotinib 0.037 | [1] -0.09 | [2] -0.051 | [3] 0.048 | [4] -0.023 | [5] 0.001 | [6] 0.002 | [7] 0.007 | [8] -0.001 | IRAK-1-4 Inhibitor I -0.038

UBE2F isoform 2 (UniProt Q969M7)
inactive: erlotinib 0.01 | [1] 0.05 | [2] 0.025 | [3] -0.041 | [4] 0.031 | [5] -0.018 | [6] -0.007 | [7] -0.049 | [8] 0.032 | IRAK-1-4 Inhibitor I 0.042

TXLNG (UniProt Q9NUQ3)
inactive: erlotinib -0.029 | [1] -0.076 | [2] 0.018 | [3] 0.004 | [4] -0.029 | [5] -0.001 | [6] 0.03 | [7] 0.019 | [8] -0.001 | IRAK-1-4 Inhibitor I 0

UBE2H (UniProt P62256)
inactive: erlotinib -0.002 | [1] -0.002 | [2] 0.009 | [3] 0.008 | [4] 0.014 | [5] 0.029 | [6] 0.019 | [7] 0.013 | [8] -0.036 | IRAK-1-4 Inhibitor I -0.026

UBR3 isoform 4 (UniProt Q6ZT12)
inactive: erlotinib 0.016 | [1] 0.044 | [2] 0.016 | [3] 0.027 | [4] 0.005 | [5] 0.005 | [6] -0.07 | [7] -0.063 | [8] 0.032 | IRAK-1-4 Inhibitor I -0.007

TYMS (UniProt P04818)
inactive: erlotinib 0.016 | [1] 0.041 | [2] 0.011 | [3] -0.032 | [4] 0.032 | [5] -0.026 | [6] 0.019 | [7] 0.035 | [8] -0.004 | IRAK-1-4 Inhibitor I -0.008

TUBAL3 (UniProt A6NHL2)
inactive: erlotinib -0.018 | [1] -0.01 | [2] -0.076 | [3] -0.114 | [4] -0.004 | [5] -0.011 | [6] -0.134 | [7] -0.025 | [8] 0.037 | IRAK-1-4 Inhibitor I 0.078

UBE2J2 (UniProt Q8N2K1)
inactive: erlotinib 0.027 | [1] 0 | [2] 0.059 | [3] 0 | [4] -0.109 | [5] -0.049 | [6] -0.051 | [7] -0.029 | [8] -0.033 | IRAK-1-4 Inhibitor I 0.038

TUBGCP2 isoform 4 (UniProt Q9BSJ2)
inactive: erlotinib 0.036 | [1] -0.048 | [2] 0.012 | [3] 0.025 | [4] 0.014 | [5] -0.005 | [6] -0.029 | [7] -0.014 | [8] 0.004 | IRAK-1-4 Inhibitor I -0.041

UBXN6 (UniProt Q9BZV1)
inactive: erlotinib -0.02 | [1] 0.001 | [2] 0.001 | [3] -0.024 | [4] 0.006 | [5] 0.036 | [6] -0.073 | [7] 0 | [8] -0.005 | IRAK-1-4 Inhibitor I -0.007

UBE2J1 (UniProt Q9Y385)
inactive: erlotinib 0.04 | [1] -0.194 | [2] -0.013 | [3] -0.034 | [4] 0.008 | [5] -0.046 | [6] 0.044 | [7] -0.046 | [8] 0.114 | IRAK-1-4 Inhibitor I -0.007

Reprinted at random: 2 entries already listed.
UBR5 (UniProt O95071)
inactive: erlotinib 0.005 | [1] -0.029 | [2] -0.024 | [3] -0.002 | [4] -0.012 | [5] -0.013 | [6] -0.033 | [7] -0.001 | [8] 0.007 | IRAK-1-4 Inhibitor I 0.001

TXLNG (UniProt Q9NUQ3)
inactive: erlotinib -0.029 | [1] -0.076 | [2] 0.018 | [3] 0.004 | [4] -0.029 | [5] -0.001 | [6] 0.03 | [7] 0.019 | [8] -0.001 | IRAK-1-4 Inhibitor I 0
